Results are given in words; binding and its absence hold for the method and conditions named. Some entries that bind do so weakly or less than the wild type.
Legend:
Experiment in all cases: ELISA on plated matrix protein, 1.8 ug/ml zsig37-FITC, chemiluminescence on film
[1] = target: Bovine Collagen Type I (Becton Dickinson) (bovine) (UniProt P02453+P02465)
[2] = target: human collagen Type II (Chemicon International) (human) (UniProt P02458)
[3] = target: human collagen Type III (Chemicon International) (human) (UniProt P02461)

Protein sequences, listed by entry. Tags and fused reporters are not part of them. Lines headed by an entry give the natural chain unless they say otherwise; changes in a name come on top. Residues count along the entry.
UniProt P02453: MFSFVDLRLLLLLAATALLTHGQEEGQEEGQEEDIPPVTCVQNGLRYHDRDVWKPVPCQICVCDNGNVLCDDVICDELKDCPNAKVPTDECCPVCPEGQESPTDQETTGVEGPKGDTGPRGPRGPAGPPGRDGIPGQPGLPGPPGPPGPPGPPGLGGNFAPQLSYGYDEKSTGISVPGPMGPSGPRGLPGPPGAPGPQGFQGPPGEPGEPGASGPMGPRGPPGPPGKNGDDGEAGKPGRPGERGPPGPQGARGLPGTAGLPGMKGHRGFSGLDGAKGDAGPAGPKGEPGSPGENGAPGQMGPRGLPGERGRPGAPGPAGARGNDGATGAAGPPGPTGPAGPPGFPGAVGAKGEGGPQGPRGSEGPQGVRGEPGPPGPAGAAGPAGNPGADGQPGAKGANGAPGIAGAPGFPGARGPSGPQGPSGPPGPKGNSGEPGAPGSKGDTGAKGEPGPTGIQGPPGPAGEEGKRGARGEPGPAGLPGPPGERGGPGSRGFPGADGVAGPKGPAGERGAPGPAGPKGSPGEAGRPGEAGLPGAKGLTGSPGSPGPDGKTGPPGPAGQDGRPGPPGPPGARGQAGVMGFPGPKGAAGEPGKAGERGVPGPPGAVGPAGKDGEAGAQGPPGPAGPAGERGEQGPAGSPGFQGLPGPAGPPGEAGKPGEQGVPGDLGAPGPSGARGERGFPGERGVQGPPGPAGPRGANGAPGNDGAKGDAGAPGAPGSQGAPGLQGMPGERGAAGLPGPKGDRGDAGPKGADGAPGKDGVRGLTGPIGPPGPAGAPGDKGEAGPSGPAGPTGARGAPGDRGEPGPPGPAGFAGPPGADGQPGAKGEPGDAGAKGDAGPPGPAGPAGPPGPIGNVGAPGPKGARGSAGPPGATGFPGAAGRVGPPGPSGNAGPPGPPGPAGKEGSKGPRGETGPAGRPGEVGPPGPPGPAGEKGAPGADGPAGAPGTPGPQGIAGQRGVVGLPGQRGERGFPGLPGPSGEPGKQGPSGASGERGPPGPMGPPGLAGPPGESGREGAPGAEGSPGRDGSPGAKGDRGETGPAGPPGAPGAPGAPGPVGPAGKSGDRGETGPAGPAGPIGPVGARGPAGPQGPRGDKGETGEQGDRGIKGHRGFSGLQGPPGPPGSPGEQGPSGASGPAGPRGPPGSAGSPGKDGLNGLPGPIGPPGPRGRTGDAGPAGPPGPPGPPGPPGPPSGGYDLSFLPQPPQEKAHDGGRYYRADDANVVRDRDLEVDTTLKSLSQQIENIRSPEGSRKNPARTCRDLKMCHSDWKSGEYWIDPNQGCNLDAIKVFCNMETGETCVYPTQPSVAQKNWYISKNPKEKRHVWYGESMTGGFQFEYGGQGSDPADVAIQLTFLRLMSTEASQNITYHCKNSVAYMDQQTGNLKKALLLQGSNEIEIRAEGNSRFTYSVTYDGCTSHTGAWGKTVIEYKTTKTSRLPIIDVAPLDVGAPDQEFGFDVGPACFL
UniProt P02465: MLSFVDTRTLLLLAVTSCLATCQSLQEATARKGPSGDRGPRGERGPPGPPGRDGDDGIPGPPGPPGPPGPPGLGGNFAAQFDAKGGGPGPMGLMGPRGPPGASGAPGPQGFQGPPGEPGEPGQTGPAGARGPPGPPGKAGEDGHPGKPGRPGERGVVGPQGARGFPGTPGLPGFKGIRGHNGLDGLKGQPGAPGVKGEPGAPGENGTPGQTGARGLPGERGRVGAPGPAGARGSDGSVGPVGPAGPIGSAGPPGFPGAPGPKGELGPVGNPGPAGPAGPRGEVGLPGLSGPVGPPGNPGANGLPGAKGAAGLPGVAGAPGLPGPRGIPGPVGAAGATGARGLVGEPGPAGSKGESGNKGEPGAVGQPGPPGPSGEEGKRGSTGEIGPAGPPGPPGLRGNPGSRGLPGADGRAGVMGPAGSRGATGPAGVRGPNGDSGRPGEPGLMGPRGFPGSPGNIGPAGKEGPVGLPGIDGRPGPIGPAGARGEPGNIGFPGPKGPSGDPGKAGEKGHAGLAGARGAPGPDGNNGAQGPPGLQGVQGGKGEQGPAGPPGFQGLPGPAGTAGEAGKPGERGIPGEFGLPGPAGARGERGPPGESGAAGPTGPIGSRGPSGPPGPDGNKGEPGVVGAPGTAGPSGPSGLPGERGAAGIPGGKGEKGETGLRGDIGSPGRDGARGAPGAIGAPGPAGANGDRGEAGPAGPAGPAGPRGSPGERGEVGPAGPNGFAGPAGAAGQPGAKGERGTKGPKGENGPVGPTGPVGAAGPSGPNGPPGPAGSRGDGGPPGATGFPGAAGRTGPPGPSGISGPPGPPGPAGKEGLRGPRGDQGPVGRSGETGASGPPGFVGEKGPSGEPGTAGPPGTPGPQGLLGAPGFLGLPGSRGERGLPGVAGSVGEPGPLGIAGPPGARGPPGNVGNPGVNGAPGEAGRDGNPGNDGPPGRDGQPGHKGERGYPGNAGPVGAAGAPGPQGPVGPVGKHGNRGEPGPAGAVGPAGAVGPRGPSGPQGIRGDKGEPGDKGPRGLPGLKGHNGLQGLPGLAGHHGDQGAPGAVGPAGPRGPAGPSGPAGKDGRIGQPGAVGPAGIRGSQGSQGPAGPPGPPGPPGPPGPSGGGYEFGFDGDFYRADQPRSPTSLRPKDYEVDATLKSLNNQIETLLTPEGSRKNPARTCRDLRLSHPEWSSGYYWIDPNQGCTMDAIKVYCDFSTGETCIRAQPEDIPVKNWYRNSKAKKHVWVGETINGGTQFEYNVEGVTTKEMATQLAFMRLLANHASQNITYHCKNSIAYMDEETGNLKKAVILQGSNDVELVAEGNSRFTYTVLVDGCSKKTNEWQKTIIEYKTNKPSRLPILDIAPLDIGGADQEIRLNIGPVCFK
UniProt P02458, residues 182-1241: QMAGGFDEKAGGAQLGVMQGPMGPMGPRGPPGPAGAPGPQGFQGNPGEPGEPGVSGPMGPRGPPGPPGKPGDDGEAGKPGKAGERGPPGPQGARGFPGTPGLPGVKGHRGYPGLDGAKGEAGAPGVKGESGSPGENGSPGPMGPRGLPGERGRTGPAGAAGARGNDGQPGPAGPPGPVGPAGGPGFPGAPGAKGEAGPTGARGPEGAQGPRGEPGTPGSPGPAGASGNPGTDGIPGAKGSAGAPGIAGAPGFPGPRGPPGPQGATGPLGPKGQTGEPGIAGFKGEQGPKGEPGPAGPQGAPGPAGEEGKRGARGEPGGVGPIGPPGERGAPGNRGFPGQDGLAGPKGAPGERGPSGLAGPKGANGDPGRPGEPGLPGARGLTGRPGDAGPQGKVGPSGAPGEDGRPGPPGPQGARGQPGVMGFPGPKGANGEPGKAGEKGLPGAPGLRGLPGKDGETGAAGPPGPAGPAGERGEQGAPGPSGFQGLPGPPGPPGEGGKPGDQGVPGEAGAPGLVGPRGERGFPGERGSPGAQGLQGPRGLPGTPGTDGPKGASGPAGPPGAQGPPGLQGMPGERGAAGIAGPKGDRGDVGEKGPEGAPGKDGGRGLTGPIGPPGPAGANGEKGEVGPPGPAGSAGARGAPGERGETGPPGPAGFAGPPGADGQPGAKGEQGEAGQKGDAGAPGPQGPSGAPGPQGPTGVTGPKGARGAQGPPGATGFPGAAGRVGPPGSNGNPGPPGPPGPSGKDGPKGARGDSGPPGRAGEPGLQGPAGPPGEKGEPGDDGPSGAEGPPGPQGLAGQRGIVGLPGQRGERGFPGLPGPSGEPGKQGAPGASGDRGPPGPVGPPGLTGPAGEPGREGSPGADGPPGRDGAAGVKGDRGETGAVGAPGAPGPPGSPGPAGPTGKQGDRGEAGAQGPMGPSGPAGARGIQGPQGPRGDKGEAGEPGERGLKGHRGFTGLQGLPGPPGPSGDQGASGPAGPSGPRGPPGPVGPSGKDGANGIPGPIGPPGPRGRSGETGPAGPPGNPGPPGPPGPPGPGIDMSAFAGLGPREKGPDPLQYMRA
UniProt P02461, residues 154-1221: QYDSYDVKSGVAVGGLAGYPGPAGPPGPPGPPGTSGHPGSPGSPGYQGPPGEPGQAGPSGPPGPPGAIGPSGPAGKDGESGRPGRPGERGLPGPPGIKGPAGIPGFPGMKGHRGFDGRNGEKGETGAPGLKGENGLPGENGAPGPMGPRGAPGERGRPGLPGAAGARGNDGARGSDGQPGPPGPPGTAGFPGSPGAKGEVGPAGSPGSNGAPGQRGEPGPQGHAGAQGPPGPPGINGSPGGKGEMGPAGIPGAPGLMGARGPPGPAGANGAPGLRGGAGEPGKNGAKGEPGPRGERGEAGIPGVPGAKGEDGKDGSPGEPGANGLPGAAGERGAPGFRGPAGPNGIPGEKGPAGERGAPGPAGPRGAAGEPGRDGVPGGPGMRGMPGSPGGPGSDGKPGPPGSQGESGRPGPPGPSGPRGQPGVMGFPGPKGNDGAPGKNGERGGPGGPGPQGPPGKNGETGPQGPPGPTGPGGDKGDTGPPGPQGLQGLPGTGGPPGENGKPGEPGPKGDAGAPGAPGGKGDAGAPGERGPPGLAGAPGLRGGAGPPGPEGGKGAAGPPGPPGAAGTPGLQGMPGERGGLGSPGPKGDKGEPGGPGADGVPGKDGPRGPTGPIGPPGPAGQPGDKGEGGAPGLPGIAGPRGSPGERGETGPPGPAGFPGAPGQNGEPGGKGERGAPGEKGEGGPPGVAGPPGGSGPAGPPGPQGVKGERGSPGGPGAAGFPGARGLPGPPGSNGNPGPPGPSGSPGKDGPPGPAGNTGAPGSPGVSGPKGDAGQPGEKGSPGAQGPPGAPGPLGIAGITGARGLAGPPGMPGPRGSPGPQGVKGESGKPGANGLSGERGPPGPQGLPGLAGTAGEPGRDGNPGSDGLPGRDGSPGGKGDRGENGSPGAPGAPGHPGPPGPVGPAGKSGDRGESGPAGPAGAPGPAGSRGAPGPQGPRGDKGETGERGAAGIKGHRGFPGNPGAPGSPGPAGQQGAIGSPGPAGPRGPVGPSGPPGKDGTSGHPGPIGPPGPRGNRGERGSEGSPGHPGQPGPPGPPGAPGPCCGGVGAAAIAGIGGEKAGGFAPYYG

Measured: binding

B1: zsig37-FITC (ligand)
chain: LVLSRVPHVQGEQQEWEGTEELPSPPDHAERAEEQHEKYRPSQDQGLPASRCLRCCDPGTSMYPATAVPQINITILKGEKGDRGDRGLQGKYGKTGSAGARGHTGPKGQKGSMGAPGERCKSHYAAFSVGRKKPMHSNHYYQTVIFDTEFVNLYDHFNMFTGKFYCYVPGLYFFSLNVHTWNQKETYLHIMKNEEEVVILFAQVGDRSIMQSQSLMLELREQDQVWVRLYKGERENAIFSEELDTYITFSGYLVKHATEP
modifications: FITC label (sites not given)
binds: all assays above

Reference: patent US20030144208A1
